Assay results taken from patent US5135935A, “Squalene synthetase inhibitors” (Merck & Co., Inc., priority 1991, dated 1992).
The name of at least one read-out is uncertain.

Molecular target: T1, Squalene Synthetase (Rattus norvegicus, UniProt Q02769)
T1 construct: from tissue; host or cells: liver microsomes of male Charles River CD rats fed 0.1% lovastatin
T1 sequence (Q02769 1-416): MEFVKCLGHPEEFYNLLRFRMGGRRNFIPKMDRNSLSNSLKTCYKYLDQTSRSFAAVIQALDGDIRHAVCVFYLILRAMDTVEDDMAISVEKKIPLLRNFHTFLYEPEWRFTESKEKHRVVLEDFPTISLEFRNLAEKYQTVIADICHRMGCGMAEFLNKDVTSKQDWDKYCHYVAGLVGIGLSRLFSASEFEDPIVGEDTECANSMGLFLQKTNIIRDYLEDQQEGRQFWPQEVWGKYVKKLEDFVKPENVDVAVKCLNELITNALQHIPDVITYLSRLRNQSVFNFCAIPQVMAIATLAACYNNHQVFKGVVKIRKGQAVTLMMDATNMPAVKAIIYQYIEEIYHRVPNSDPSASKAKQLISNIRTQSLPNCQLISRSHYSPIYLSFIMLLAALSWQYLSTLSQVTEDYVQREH
Test: Squalene synthetase assay, rat liver microsomes, [4-14C]farnesyl pyrophosphate
Assay type: biochemical
Details: 30° C., 20 minutes, salt form as tabulated
Method: The intrinsic squalene synthetase inhibitory activity of representative compounds of this invention was measured by the standard in vitro protocol described below:
Male, Charles River CD rats (120 to 150 g) were fed a diet containing 0.1% lovastatin for 4 days. The livers from these rats were homogenized in 5 volumes (mL/g) of ice cold 50 mM HEPES (4-(2-hydroxyethyl)-1-piperazine-ethanesulfonic acid), 5 mM EDTA (ethylenediaminetetraacetic acid) pH 7.5 with a Potter-Elvehjem type tissue grinder. The homogenate was centrifuged twice at 20,000×g for 15 minutes at 4° C., discarding the pellet each time. The supernatant was then centrifuged at 100,000×g for 1 hour at 4° C. The resulting microsomal pellet was resuspended in a volume of the above homogenizing buffer equal to one-fifth the volume of the original homogenate. This microsomal preparation has a protein concentration of about 7 mg/mL. The microsomal suspensions were stored in aliquots at -70° C. Squalene synthetase activity in these aliquots is stable for at least several months.
Prenyl transferase was purified to use in the enzymatic synthesis of radiolabelled farnesyl pyrophosphate. Prenyl transferase was assayed by the method of Rilling (Methods in Enzymology 110, 125-129 (1985)) and a unit of activity is defined as the amount of enzyme that will produce 1 μmole of farnesyl pyrophosphate per minute at 30° C. in the standard assay. […]

Cn1cc(-c2noc(C3CN4CCC3CC4)n2)c2cc(F)ccc21 (centres unmarked) [Compound 4, 3-[3-(5-fluoro-1-methyl-1H-indol-3-yl)-1,2,4-oxadiazol-5-yl]-1-azabicyclo[2.2.2]octane]
IC50 (in absence of PPi): 1900 nM
IC50 (in presence of 1 mM PPi): 19 nM
